Source: PubChem BioAssay AID602196 (INSERM, 2012)
In all, the deposit lists about 23,000 reagents; shown is a random part of them. Over the whole deposit, 455 (2%) are marked active. 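Active includes both protection and sensitisation; some change values fall well beyond the stated -50 to +50 range.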 Further read-outs or replicates are left out here. Not stated in the record: the amount of reagent.

Test: 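Genes whose knock-down alters cisplatin killing of lung cancer cells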
System: human A549 lung cancer cells
Knock-down reagent: siRNA pair against human genes
Timing: 48 h transfection before cisplatin; time from cisplatin to read-out not stated
Treatment: cisplatin at a dose killing half of control-siRNA cells; exact dose and duration not given
Measurement: 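Shift in cisplatin death relative to control siRNA, from -50 (all cells die) to +50 (no cells die); siRNAs harmful on their own scored 0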
Scale: two-siRNA summed score (-2 to +2): higher = both siRNAs protect from cisplatin killing; -2 means both sensitise; mean protection from cisplatin (shift in death): higher = protection from cisplatin killing
Rule for the call: 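Each siRNA scores 0 if harmful alone by LDH or WST-1, otherwise +1 if it reduces and -1 if it increases cisplatin killing; a gene is active when both siRNAs agree (sum +2 or -2)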
Meaning of the calls: active = both siRNAs shift cisplatin killing the same way; inactive = no consistent shift, or siRNA harmful alone

For LOC400840 the deposit lists two-siRNA summed score (-2 to +2) = 1; mean protection from cisplatin (shift in death) (%) = 14.8; inactive.
Against TMEM51 the deposit lists two-siRNA summed score (-2 to +2) = 0; mean protection from cisplatin (shift in death) (%) = -1.6; inactive.
After knock-down of LOC283801, the record shows two-siRNA summed score (-2 to +2) = 0; mean protection from cisplatin (shift in death) (%) = 11.3; inactive.
After knock-down of MEOX1 the results were two-siRNA summed score (-2 to +2) = 0; mean protection from cisplatin (shift in death) (%) = 9.5; inactive.
For FLJ21438 the deposit lists two-siRNA summed score (-2 to +2) = 1; mean protection from cisplatin (shift in death) (%) = 12.6; inactive.
NOTCH3 gave two-siRNA summed score (-2 to +2) = -2; mean protection from cisplatin (shift in death) (%) = -23.2; active.
Knock-down of OR11H1 came out at: two-siRNA summed score (-2 to +2) = 0; mean protection from cisplatin (shift in death) (%) = 14.1; inactive.
For RPA2 the deposit lists two-siRNA summed score (-2 to +2) = 0; mean protection from cisplatin (shift in death) (%) = -24.9; inactive.
LOC284352 gave two-siRNA summed score (-2 to +2) = 0; mean protection from cisplatin (shift in death) (%) = 20.1; inactive.
After knock-down of SLC35E3, the record shows two-siRNA summed score (-2 to +2) = 0; mean protection from cisplatin (shift in death) (%) = 2.6; inactive.
LOC402687 gave two-siRNA summed score (-2 to +2) = 0; mean protection from cisplatin (shift in death) (%) = 3.4; inactive.
PRPF18 showed two-siRNA summed score (-2 to +2) = 0; mean protection from cisplatin (shift in death) (%) = -10.1; inactive.
With knock-down of URM1 the results were two-siRNA summed score (-2 to +2) = 0; mean protection from cisplatin (shift in death) (%) = -0.3; inactive.
AHSP scored two-siRNA summed score (-2 to +2) = 0; mean protection from cisplatin (shift in death) (%) = -2.5; inactive.
LOC440773 scored two-siRNA summed score (-2 to +2) = 0; mean protection from cisplatin (shift in death) (%) = 14.6; inactive.
For PTGS1, the entry reads two-siRNA summed score (-2 to +2) = 0; mean protection from cisplatin (shift in death) (%) = 16.3; inactive.
Silencing of PIK3C2G resulted in: two-siRNA summed score (-2 to +2) = 1; mean protection from cisplatin (shift in death) (%) = 16.3; inactive.
With knock-down of TNFRSF19 the results were two-siRNA summed score (-2 to +2) = 0; mean protection from cisplatin (shift in death) (%) = -0.4; inactive.

Active calls, among the entries above:
NOTCH3 | two-siRNA summed score (-2 to +2): -2; mean protection from cisplatin (shift in death) (%): -23.2; Outcome: active

The listing continues.
Depletion of LPAR6 came out at: two-siRNA summed score (-2 to +2) = 0; mean protection from cisplatin (shift in death) (%) = -9.5; inactive.
Depletion of CYBRD1 came out at: two-siRNA summed score (-2 to +2) = 0; mean protection from cisplatin (shift in death) (%) = 1.9; inactive.
After knock-down of GANAB the results were two-siRNA summed score (-2 to +2) = 0; mean protection from cisplatin (shift in death) (%) = -1.5; inactive.
Silencing of H2AC17 gave: two-siRNA summed score (-2 to +2) = 1; mean protection from cisplatin (shift in death) (%) = 10.9; inactive.
Silencing of ZNF160 came out at: two-siRNA summed score (-2 to +2) = 1; mean protection from cisplatin (shift in death) (%) = 9; inactive.
For LOC400781, the entry reads two-siRNA summed score (-2 to +2) = 0; mean protection from cisplatin (shift in death) (%) = -9.1; inactive.
OR52J3 gave two-siRNA summed score (-2 to +2) = 1; mean protection from cisplatin (shift in death) (%) = 9.6; inactive.
Silencing of ANKRD13B resulted in: two-siRNA summed score (-2 to +2) = 0; mean protection from cisplatin (shift in death) (%) = 10.2; inactive.
After knock-down of DRD3, the screen gave two-siRNA summed score (-2 to +2) = 0; mean protection from cisplatin (shift in death) (%) = -0.2; inactive.
Against ACP1, the values are two-siRNA summed score (-2 to +2) = -1; mean protection from cisplatin (shift in death) (%) = 1; inactive.
LOC442745 scored two-siRNA summed score (-2 to +2) = 0; mean protection from cisplatin (shift in death) (%) = -2.1; inactive.
After knock-down of GRTP1 the results were two-siRNA summed score (-2 to +2) = 0; mean protection from cisplatin (shift in death) (%) = 0.5; inactive.
Against FDX2, the entry reads two-siRNA summed score (-2 to +2) = 0; mean protection from cisplatin (shift in death) (%) = -0.1; inactive.
